Data from paper PMC6763431, “Methionine in a protein hydrophobic core drives tight interactions required for assembly of spider silk” (Nature Communications, 2019).
These are yes or no findings as the source states them, for the method shown. Some binding calls cover weakened binding; strength is not graded here. One block for each binder: values may come before it.

How the values were obtained:
[1] = target: T1, wild-type N-terminal domain of major ampullate spidroin 1 (MaSp1) from Euprosthenops australis (Euprosthenops australis), Q05H60; test: NMR chemical shift changes (1H,15N HSQC) between monomer and dimer conditions; pH 7.0, 200 mM ionic strength against pH 6.0, 8 mM ionic strength; 298 K; 300 µM protein (600 µM L6-NTD for assignments at pH 6); both purified; details: remark: other sources report otherwise
T1 chain: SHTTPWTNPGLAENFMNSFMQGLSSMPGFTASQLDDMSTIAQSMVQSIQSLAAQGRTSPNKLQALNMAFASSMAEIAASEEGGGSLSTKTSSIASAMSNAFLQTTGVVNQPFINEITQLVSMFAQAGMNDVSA

[2] = target: T1, wild-type N-terminal domain of major …; test: SEC; high-resolution SEC with Trp fluorescence detection, Superdex-75 Increase 10/300, 0.8 ml/min, 20 mM MES, pH 6.0, ionic strength 20 mM (KCl); elution volume against protein concentration fitted to a monomer/dimer equilibrium; dimer to monomers; both purified; details: remark: other sources report otherwise
[3] = target: wild-type N-terminal domain of major ampullate spidroin 1 (MaSp1) from Euprosthenops australis (Euprosthenops australis) (UniProt Q05H60); test: condition: only at pH 7.0 and 200 mM ionic strength; SEC-MALS; 50 mM phosphate, pH 7.0, ionic strength 200 mM (KCl), monomer conditions; Superdex-75 or Superdex-200 HR10/300, 0.5 ml/min; both purified

- binding [1]: binds
- binding [2]: binds
B1: wild-type N-terminal domain of major ampullate spidroin 1 (MaSp1) from Euprosthenops australis, Q05H60 24-156 (domain or fragment)
chain: T1 chain

- binding [3]: no binding
B2: wild-type N-terminal domain of major ampullate spidroin 1 (MaSp1) from Euprosthenops australis (domain or fragment, UniProt Q05H60 24-156)
chain: T1 chain
